Data on two substances can be found in publication doi:10.1101/2021.03.11.434917.

The chains behind the UniProt entries cited, without tags or fusion partners.
UniProt Q60575: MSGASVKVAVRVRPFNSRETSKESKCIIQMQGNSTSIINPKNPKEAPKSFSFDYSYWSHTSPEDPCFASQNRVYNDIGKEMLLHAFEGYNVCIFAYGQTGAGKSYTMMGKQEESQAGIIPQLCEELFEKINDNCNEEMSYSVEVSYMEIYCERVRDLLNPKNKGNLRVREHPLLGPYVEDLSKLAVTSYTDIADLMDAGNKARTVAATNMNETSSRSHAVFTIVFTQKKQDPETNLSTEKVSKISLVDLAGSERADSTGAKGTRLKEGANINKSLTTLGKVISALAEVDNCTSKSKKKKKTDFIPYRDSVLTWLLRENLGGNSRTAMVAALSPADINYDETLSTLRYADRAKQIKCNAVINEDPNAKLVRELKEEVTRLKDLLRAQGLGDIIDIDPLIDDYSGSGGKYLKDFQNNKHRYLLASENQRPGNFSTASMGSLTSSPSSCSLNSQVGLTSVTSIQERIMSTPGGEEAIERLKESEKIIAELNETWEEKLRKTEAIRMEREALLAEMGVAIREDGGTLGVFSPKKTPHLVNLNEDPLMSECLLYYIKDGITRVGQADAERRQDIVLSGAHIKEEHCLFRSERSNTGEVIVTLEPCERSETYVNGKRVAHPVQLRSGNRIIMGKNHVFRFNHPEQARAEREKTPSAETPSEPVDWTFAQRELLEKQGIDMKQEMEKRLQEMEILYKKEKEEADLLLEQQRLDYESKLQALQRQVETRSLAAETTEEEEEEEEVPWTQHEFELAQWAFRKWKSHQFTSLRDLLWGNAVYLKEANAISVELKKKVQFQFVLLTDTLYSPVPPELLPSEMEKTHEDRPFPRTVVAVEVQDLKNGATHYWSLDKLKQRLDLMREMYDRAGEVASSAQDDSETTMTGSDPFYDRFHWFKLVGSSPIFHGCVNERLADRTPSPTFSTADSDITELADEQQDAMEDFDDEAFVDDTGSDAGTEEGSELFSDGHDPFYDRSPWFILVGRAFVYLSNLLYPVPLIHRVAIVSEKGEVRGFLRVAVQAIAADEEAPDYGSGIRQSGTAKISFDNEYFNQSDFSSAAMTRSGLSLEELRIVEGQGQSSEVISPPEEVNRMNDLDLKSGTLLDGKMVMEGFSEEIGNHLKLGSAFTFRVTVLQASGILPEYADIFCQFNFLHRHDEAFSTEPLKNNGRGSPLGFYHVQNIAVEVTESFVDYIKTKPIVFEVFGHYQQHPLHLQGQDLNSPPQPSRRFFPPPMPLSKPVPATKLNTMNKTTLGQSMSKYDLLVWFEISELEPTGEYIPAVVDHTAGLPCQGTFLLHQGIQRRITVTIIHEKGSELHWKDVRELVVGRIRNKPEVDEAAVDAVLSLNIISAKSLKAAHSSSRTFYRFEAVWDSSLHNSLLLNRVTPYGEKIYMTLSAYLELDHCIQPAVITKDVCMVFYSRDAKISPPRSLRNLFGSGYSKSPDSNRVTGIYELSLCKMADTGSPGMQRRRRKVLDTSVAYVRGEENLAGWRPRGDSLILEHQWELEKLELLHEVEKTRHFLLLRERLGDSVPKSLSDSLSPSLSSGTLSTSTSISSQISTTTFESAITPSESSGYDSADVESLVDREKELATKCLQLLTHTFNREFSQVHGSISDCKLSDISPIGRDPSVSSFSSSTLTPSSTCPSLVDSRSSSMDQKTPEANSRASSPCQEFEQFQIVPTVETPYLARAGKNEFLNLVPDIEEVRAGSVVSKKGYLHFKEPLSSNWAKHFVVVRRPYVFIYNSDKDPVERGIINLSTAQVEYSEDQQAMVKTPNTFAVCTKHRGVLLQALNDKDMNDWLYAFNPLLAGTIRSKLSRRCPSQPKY
UniProt Q61768: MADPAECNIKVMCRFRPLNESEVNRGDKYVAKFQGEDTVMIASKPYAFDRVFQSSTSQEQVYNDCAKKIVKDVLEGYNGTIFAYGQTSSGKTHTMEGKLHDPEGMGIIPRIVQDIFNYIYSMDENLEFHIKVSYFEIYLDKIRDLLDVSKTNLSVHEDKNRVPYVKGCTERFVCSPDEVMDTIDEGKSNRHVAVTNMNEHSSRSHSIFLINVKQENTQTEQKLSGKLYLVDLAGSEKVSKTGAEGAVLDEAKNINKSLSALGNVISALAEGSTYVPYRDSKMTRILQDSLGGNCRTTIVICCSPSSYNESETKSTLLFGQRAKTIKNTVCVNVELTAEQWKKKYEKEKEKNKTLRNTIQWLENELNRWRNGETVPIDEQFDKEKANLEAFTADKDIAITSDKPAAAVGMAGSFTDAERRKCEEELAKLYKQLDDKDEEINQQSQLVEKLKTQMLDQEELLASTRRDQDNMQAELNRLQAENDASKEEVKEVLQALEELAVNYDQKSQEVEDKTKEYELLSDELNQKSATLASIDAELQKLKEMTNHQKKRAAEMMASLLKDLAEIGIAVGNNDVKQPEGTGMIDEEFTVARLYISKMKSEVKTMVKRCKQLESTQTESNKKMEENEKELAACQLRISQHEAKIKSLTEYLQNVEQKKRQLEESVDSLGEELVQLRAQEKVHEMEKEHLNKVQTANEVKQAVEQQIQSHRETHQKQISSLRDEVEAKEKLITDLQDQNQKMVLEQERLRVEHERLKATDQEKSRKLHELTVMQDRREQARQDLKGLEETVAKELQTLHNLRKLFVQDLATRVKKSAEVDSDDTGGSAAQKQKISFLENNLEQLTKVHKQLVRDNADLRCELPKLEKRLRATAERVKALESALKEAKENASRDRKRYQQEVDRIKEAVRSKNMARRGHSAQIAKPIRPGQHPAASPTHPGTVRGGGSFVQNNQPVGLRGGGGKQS

These are yes or no findings as the source states them, for the method shown. In cells and extracts the contact can be indirect. Some results given as binding are weak or reduced against the parent protein; the word gives no strength. Where a sequence is shown, tags or fusion partners need not be part of it.

The target of the experiment is T1, GST-SKIP (1-282) (UniProt Q8IWE5).
T1 sequence: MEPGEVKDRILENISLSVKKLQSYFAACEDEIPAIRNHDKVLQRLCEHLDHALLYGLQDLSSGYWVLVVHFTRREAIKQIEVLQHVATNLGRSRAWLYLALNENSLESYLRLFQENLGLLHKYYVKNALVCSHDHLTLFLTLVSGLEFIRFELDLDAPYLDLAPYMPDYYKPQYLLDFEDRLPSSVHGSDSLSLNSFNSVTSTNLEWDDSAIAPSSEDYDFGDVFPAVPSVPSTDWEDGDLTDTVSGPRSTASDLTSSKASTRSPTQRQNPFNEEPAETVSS
The experiment is described as follows: pull-down.

Turning to “KIF1B (endogenous, melanosome lysate) (from UniProt Q60575 1-1816)”, the binding result is given as “binds”. As to “KIF5B (endogenous, melanosome lysate) (from UniProt Q61768 1-963)”, the binding entry is on record as “binds”.
